Measurements reported in the supplement of paper PMC12823440, “Inhibitors supercharge kinase turnover through native proteolytic circuits” (Nature, 2025).
This is one part of the list. Hit calls seldom repeat between salt and free forms of one compound.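 In K562 cells expressing nanoluciferase-fused kinases, luminescence was recorded at 4 h intervals between 2 and 18 h, normalized as percent of control with DMSO at 100% and a positive control at 0%. A significant (2 sigma) signal drop marks a time point as decreased. The authors' rule for a hit is not shown and takes in more than the number of time points.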

Sequences of proteins named here, by UniProt entry; tags and fusion partners are left off. A change or cut given only in a name is not applied to a line headed by its entry.
UniProt Q06187: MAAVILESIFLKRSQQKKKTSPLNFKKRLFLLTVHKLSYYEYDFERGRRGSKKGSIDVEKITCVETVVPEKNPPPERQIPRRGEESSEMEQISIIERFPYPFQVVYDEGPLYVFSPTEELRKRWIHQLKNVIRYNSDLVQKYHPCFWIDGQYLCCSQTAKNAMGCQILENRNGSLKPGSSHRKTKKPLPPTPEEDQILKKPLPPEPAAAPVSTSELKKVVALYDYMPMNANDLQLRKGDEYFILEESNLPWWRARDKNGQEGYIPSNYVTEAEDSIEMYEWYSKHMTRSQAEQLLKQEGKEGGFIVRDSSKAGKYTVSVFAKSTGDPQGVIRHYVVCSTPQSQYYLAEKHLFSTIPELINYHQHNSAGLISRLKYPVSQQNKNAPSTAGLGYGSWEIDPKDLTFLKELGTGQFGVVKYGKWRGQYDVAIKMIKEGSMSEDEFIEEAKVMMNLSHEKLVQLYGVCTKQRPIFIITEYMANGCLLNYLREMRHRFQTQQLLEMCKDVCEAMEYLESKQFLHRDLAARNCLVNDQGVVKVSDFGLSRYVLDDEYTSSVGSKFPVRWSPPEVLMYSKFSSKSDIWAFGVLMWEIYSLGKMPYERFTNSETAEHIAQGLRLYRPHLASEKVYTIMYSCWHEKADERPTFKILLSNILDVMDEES

What follows are compounds tested against BTK (UniProt Q06187) (assay: kinase-Nluc reporter destabilization hit call (1 = scored as downregulated) (binary); higher = compound decreases kinase abundance). Settings: K562; 2-18 h.

kinase-Nluc reporter destabilization hit call, inactive:
O=c1cc(O)cc(/C=C/c2ccc(O)c(O)c2)o1 [Hispidin] (10 µM) 0
CC1CN(C(=O)Nc2ccc(Cl)c(Cl)c2)C(=Nc2ccc(F)cc2)S1 (configuration not stated) (10 µM) 0
COc1cc2c[n+](C)c3c4cc5c(cc4ccc3c2cc1OC)OCO5 [Nitidine (chloride)] (2 µM) 0
Cc1c(CN2CCN(S(C)(=O)=O)CC2)sc2c(N3CCOCC3)nc(-c3cnc(N)nc3)nc12 (2.5 µM) 0
Cc1cc([C@H](C)Nc2ccccc2)c2oc(N3CCOCC3)cc(=O)c2c1 (10 µM) 0
O=C(CNC(=O)c1ccc(-c2ccccc2)cc1)NC1CCCc2ccccc21 (configuration not stated) [TAO Kinase inhibitor 1] (10 µM) 0
Cn1cc(-c2ccc(CNc3cc(-c4cnc5cc(OCCCN6CCCC6)ccn45)ncn3)cc2)cn1 (10 µM) 0
Cc1ccc(S(=O)(=O)Nc2ccccc2C=Nc2ccccc2NS(=O)(=O)c2ccc(C)cc2)cc1 (10 µM) 0
O=C(/C=C/c1ccc(O)c(O)c1)c1ccc(O[C@@H]2O[C@H](CO)[C@@H](O)[C@H](O)[C@H]2O)c(O)c1O [Marein] (10 µM) 0
O=C(NCCCNc1nc(Nc2cccc(NC(=O)N3CCCC3)c2)ncc1I)c1cccs1 (2.5 µM) 0
CN(CCNc1ccc2ncc(-c3ccc(C(N)=O)cc3)n2n1)C(=O)OC(C)(C)C (10 µM) 0
C=C(C)C(=O)Nc1cccc(-c2ncnc3[nH]cc(C(=O)OCC)c23)c1 (10 µM) 0
